The experiment concerns HEK293A TEAD-LUC reporter. Put plainly: TEAD-luciferase reporter activity (YAP activation), robust Z score vs plate; higher = stronger YAP/TEAD activation. The following applies: 24 h. (In general: A reporter such as luciferase makes a cellular process visible.)

Some of the results follow. Repeats in this data set agree poorly, so a single value says little.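 Human kidney-derived cells stably carry a construct in which eight TEAD-binding elements drive luciferase, measured by luminescence in a drug-repurposing library screen. A hit is any compound whose signal exceeds the plate mean by more than five robust Z scores.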

With `CC(=O)NC[C@H]1CN(c2ccc(C3=CCN(C(=O)CO)CC3)c(F)c2)C(=O)O1`, the TEAD-luciferase reporter activity by setting is: (compound concentration: 200 nM) inactive: -1.82; (compound concentration: 2 uM) inactive: -1.68; (compound concentration: 10 uM) inactive: 1.5.
For `NC(=O)c1cnccn1` [Pyrazinamide], in that order: inactive: 2.01, inactive: -1.46 and inactive: -0.928.
Consider `O=C(NC1CC1)c1cn(-c2cccc(C#Cc3ccc[n+]([O-])c3)c2)c2ncccc2c1=O`, for which the TEAD-luciferase reporter activity is, setting by setting: (compound concentration: 200 nM) inactive: -1.66; (compound concentration: 2 uM) inactive: -0.878; (compound concentration: 10 uM) inactive: -1.38.
As to `COc1ccc(-c2noc(CC(=O)O)c2-c2ccc(OC)cc2)cc1` [mofezolac], the TEAD-luciferase reporter activity reads like this: (compound concentration: 200 nM) inactive: -1.9; (compound concentration: 2 uM) inactive: 1.45; (compound concentration: 10 uM) inactive: 1.92.
Take `O=C(O)CCC(=O)N1Cc2ccccc2CC2(CCCCN2Cc2ccccc2)C1` (centres undefined): the TEAD-luciferase reporter activity runs as follows: (compound concentration: 200 nM) inactive: 0.875; (compound concentration: 10 uM) inactive: 2.15.
On to `Cn1cncc1[C@](N)(c1ccc(Cl)cc1)c1ccc2c(c1)c(-c1cccc(Cl)c1)cc(=O)n2C` [tipifarnib], for which the TEAD-luciferase reporter activity is inactive: 2.67 (compound concentration: 200 nM), inactive: 1.75 (compound concentration: 2 uM) and inactive: -0.0915 (compound concentration: 10 uM).
In the same order, the values of `CCOC(=O)Cc1cc(Cl)c(Oc2ccc(C(=O)NC(C)(C)C)cc2NS(=O)(=O)c2c(Cl)cccc2Cl)cc1F` are inactive: -0.759, inactive: 0.39 and inactive: 1.47.
In the same order, the values of `CCOc1ccc(Cc2cc([C@@H]3O[C@H](CO)[C@@H](O)[C@H](O)[C@H]3O)ccc2Cl)cc1` [Dapagliflozin] are inactive: -2.34, inactive: -0.753 and inactive: -0.993.
As for `O=C(O)COc1ccc(C(=O)CNC(=O)c2cc3c(s2)CCNC3)cc1OCC(=O)O`, the TEAD-luciferase reporter activity by setting is: (compound concentration: 200 nM) inactive: -0.159; (compound concentration: 2 uM) inactive: -0.902; (compound concentration: 10 uM) active: 5.11.
In the case of `C[N+]1(C)[C@@H]2C[C@@H](OC(=O)C(O)(c3cccs3)c3cccs3)C[C@H]1[C@@H]1O[C@@H]12` [tiotropium bromide], the TEAD-luciferase reporter activity (compound concentration: 2 uM) was inactive: -1.53.
As for `C[N+]1(C)[C@@H]2C[C@@H](OC(=O)C(O)(c3cccs3)c3cccs3)C[C@H]1[C@@H]1O[C@@H]12` [Tiotropium Bromide hydrate], the TEAD-luciferase reporter activity is inactive: -1.78 (compound concentration: 200 nM) and inactive: 1.04 (compound concentration: 10 uM).
`Cc1c(O)c(C)c2sc(NCc3ccc(S(N)(=O)=O)cc3)nc2c1C`: the TEAD-luciferase reporter activity by setting is: (compound concentration: 200 nM) inactive: -1.51; (compound concentration: 2 uM) inactive: -0.843; (compound concentration: 10 uM) inactive: -1.43.
For `COC[C@@H](c1ccc(C(F)(F)F)cc1)N1CCN(C2(C)CCN(C(=O)c3c(C)ncnc3C)CC2)C[C@@H]1C` [Vicriviroc Malate], the TEAD-luciferase reporter activity is inactive: -0.493 (compound concentration: 200 nM), inactive: -1.57 (compound concentration: 2 uM) and inactive: 1.06 (compound concentration: 10 uM).
For `CC(=O)OC1C(=O)N(CCN(C)C)c2ccc(C)cc2SC1c1ccc(C)cc1` (centres undefined), in that order: inactive: 0.0304, inactive: -0.264 and inactive: 1.55.
For the compound `NC(N)C(=O)c1ccc2c(c1)OCO2`, the TEAD-luciferase reporter activity (compound concentration: 200 nM) is inactive: -0.342, the TEAD-luciferase reporter activity (compound concentration: 2 uM) is inactive: -1.7 and the TEAD-luciferase reporter activity (compound concentration: 10 uM) is inactive: 0.754.
For `OCc1ccc(CO)o1`, in that order: inactive: -1.05, inactive: -1.03 and inactive: 0.882.
For `Nc1ccc(S(=O)(=O)Nc2ccccn2)cc1`, in that order: inactive: 1.34, inactive: -1.29 and inactive: -0.597.
On to `CC(C)c1nc(N(C)S(C)(=O)=O)nc(-c2ccc(F)cc2)c1/C=C/[C@@H](O)C[C@@H](O)CC(=O)O` [rosuvastatin calcium], for which the TEAD-luciferase reporter activity was inactive: -2.15 (compound concentration: 200 nM), inactive: -0.671 (compound concentration: 2 uM) and inactive: 0.631 (compound concentration: 10 uM).
In the same order, the values of `CC(CC(=O)c1ccc(-c2ccccc2)cc1)C(=O)O` (centres undefined) [metbufen] are inactive: -0.741, inactive: 0.941 and inactive: 1.43.
In the case of `COc1ccc2c(c1)C(OC(C)C)=C(C(N)=O)S2=O` (centres undefined), the TEAD-luciferase reporter activity by setting is: (compound concentration: 200 nM) inactive: -2.29; (compound concentration: 2 uM) inactive: 1.5; (compound concentration: 10 uM) inactive: 0.458.
Take `CCCc1nn(C)c2c(=O)[nH]c(-c3cc(S(=O)(=O)N4CCN(CCOC(=O)OCCN5CCN(S(=O)(=O)c6ccc(OCC)c(-c7nc8c(CCC)nn(C)c8c(=O)[nH]7)c6)CC5)CC4)ccc3OCC)nc12` [Lodenafil carbonate]: the TEAD-luciferase reporter activity by setting is: (compound concentration: 200 nM) inactive: -0.478; (compound concentration: 2 uM) inactive: -0.843; (compound concentration: 10 uM) inactive: -0.699.
On to `Cc1nn(CCOc2ccc(CC3SC(=O)NC3=O)cc2)c(=O)c2ccccc12` (centres undefined), for which the TEAD-luciferase reporter activity is, setting by setting: (compound concentration: 200 nM) inactive: -0.873; (compound concentration: 2 uM) inactive: -0.957; (compound concentration: 10 uM) inactive: 1.56.
In the same order, the values of `Cc1cc(-c2ccccc2)c(C(=O)C(=O)Nc2ccc(N3CCN(c4ncc(F)cn4)CC3)cc2)n1C` are inactive: 0.106, inactive: -0.727 and inactive: -1.68.
As to `C1=C(C=C2NCCN2)CCc2ccccc21` [Napamezole], the TEAD-luciferase reporter activity (compound concentration: 200 nM) is inactive: 1.8, the TEAD-luciferase reporter activity (compound concentration: 2 uM) was inactive: -0.954 and the TEAD-luciferase reporter activity (compound concentration: 10 uM) is inactive: 2.35.
As to `Cc1cc(Cn2cnc3c2C[C@@H](C(=O)O)N(C(=O)C(c2ccccc2)c2ccccc2)C3)ccc1N(C)C`, the TEAD-luciferase reporter activity by setting is: (compound concentration: 200 nM) inactive: 0.0306; (compound concentration: 2 uM) inactive: -1.77; (compound concentration: 10 uM) inactive: -1.36.
For `NC1CONC1=O` [D-cycloserine, Searle], in that order: inactive: -0.0402, inactive: -0.633 and active: 8.64.
For `CC(C)c1cc(N2CC[C@@H](N)C2)nc(N)n1`, in that order: inactive: -0.711, inactive: 1.82 and inactive: -1.71.
Take `O=C(c1ccc(Cl)cc1)N1CCC(n2c(=O)[nH]c3ccccc32)CC1`: the TEAD-luciferase reporter activity (compound concentration: 200 nM) was inactive: 1.35.
As for `CN(C)CC(CN1c2ccccc2Sc2ccccc21)N(C)C` (centres undefined), the TEAD-luciferase reporter activity (compound concentration: 200 nM) was inactive: -0.186, the TEAD-luciferase reporter activity (compound concentration: 2 uM) was inactive: 1.27 and the TEAD-luciferase reporter activity (compound concentration: 10 uM) is inactive: -0.163.
As to `COC(=O)/C=C/C(=O)OCCN1C(=O)CCC1=O`, the TEAD-luciferase reporter activity is, setting by setting: (compound concentration: 200 nM) inactive: -1.21; (compound concentration: 2 uM) inactive: -0.615; (compound concentration: 10 uM) inactive: 0.134.
As to `CCOC(=O)c1ccc(OCCC2CCN(c3ccc(C)nn3)CC2)cc1` [Pirodavir], the TEAD-luciferase reporter activity reads like this: (compound concentration: 200 nM) inactive: -0.196; (compound concentration: 2 uM) inactive: 1.13; (compound concentration: 10 uM) inactive: -1.08.
For `CCCc1c([C@@H]2C[C@H]2c2ccccc2C)oc2ccc(C(=O)O)cc2c1=O`, in that order: inactive: -0.615, inactive: 0.0547 and inactive: -0.182.
For `CNc1c2c(nn1C)CCCC2`, in that order: inactive: -1.69, inactive: 1.29 and inactive: -1.37.
In the same order, the values of `CCOCCc1c(-c2ccccc2)nc(N)n2ncnc12` [bemitradine] are inactive: -0.531, inactive: 0.48 and inactive: 0.496.
Regarding `O=C(C1CCCCC1)N1CC(=O)N2CCc3ccccc3C2C1` (centres undefined) [praziquantel], where the note is “compound concentration: 2 uM”, the TEAD-luciferase reporter activity was inactive: -0.455.
As to `O=C(C1CCCCC1)N1CC(=O)N2CCc3ccccc3C2C1` (centres undefined), the TEAD-luciferase reporter activity was inactive: -0.297 (compound concentration: 200 nM) and inactive: 0.729 (compound concentration: 10 uM).
